Experimental data reported in paper PMC7354551.
Where two headings read alike, the source gives them in different places. No constants are given. Whether binding was seen depends on the method and setting. In cells and extracts the contact can be indirect. Some binding calls cover weakened binding; strength is not graded here.

Amino acid sequences for entries named in this document (tags omitted). A change or cut given only in a name is not applied to a line headed by its entry. Chains listed by the source or under a name are the forms on record and can include a tag or linker. Residues count along the entry.
UniProt Q9UER7: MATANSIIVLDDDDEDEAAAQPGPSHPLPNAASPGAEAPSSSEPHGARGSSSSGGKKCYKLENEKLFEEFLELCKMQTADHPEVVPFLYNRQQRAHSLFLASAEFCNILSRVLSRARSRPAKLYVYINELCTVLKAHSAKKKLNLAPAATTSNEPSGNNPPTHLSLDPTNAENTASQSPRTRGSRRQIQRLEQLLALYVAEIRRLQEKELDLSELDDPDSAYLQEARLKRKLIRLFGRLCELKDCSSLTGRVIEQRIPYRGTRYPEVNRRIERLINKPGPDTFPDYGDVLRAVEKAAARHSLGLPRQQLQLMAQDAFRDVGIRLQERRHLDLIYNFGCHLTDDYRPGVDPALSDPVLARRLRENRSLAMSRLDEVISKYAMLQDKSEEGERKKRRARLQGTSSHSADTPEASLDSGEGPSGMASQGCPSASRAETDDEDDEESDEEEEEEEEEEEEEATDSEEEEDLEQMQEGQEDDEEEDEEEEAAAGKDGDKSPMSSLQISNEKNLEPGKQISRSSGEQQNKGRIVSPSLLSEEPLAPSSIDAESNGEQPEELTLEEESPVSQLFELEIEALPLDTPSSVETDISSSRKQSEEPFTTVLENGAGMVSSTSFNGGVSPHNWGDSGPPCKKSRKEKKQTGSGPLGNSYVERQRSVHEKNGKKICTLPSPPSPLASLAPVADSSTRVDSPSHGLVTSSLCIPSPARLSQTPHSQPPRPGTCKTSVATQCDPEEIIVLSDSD
HA-tagged Daxx 1-732 (ΔSIM mutant): residues 1-732 of Q9UER7
UniProt P49792: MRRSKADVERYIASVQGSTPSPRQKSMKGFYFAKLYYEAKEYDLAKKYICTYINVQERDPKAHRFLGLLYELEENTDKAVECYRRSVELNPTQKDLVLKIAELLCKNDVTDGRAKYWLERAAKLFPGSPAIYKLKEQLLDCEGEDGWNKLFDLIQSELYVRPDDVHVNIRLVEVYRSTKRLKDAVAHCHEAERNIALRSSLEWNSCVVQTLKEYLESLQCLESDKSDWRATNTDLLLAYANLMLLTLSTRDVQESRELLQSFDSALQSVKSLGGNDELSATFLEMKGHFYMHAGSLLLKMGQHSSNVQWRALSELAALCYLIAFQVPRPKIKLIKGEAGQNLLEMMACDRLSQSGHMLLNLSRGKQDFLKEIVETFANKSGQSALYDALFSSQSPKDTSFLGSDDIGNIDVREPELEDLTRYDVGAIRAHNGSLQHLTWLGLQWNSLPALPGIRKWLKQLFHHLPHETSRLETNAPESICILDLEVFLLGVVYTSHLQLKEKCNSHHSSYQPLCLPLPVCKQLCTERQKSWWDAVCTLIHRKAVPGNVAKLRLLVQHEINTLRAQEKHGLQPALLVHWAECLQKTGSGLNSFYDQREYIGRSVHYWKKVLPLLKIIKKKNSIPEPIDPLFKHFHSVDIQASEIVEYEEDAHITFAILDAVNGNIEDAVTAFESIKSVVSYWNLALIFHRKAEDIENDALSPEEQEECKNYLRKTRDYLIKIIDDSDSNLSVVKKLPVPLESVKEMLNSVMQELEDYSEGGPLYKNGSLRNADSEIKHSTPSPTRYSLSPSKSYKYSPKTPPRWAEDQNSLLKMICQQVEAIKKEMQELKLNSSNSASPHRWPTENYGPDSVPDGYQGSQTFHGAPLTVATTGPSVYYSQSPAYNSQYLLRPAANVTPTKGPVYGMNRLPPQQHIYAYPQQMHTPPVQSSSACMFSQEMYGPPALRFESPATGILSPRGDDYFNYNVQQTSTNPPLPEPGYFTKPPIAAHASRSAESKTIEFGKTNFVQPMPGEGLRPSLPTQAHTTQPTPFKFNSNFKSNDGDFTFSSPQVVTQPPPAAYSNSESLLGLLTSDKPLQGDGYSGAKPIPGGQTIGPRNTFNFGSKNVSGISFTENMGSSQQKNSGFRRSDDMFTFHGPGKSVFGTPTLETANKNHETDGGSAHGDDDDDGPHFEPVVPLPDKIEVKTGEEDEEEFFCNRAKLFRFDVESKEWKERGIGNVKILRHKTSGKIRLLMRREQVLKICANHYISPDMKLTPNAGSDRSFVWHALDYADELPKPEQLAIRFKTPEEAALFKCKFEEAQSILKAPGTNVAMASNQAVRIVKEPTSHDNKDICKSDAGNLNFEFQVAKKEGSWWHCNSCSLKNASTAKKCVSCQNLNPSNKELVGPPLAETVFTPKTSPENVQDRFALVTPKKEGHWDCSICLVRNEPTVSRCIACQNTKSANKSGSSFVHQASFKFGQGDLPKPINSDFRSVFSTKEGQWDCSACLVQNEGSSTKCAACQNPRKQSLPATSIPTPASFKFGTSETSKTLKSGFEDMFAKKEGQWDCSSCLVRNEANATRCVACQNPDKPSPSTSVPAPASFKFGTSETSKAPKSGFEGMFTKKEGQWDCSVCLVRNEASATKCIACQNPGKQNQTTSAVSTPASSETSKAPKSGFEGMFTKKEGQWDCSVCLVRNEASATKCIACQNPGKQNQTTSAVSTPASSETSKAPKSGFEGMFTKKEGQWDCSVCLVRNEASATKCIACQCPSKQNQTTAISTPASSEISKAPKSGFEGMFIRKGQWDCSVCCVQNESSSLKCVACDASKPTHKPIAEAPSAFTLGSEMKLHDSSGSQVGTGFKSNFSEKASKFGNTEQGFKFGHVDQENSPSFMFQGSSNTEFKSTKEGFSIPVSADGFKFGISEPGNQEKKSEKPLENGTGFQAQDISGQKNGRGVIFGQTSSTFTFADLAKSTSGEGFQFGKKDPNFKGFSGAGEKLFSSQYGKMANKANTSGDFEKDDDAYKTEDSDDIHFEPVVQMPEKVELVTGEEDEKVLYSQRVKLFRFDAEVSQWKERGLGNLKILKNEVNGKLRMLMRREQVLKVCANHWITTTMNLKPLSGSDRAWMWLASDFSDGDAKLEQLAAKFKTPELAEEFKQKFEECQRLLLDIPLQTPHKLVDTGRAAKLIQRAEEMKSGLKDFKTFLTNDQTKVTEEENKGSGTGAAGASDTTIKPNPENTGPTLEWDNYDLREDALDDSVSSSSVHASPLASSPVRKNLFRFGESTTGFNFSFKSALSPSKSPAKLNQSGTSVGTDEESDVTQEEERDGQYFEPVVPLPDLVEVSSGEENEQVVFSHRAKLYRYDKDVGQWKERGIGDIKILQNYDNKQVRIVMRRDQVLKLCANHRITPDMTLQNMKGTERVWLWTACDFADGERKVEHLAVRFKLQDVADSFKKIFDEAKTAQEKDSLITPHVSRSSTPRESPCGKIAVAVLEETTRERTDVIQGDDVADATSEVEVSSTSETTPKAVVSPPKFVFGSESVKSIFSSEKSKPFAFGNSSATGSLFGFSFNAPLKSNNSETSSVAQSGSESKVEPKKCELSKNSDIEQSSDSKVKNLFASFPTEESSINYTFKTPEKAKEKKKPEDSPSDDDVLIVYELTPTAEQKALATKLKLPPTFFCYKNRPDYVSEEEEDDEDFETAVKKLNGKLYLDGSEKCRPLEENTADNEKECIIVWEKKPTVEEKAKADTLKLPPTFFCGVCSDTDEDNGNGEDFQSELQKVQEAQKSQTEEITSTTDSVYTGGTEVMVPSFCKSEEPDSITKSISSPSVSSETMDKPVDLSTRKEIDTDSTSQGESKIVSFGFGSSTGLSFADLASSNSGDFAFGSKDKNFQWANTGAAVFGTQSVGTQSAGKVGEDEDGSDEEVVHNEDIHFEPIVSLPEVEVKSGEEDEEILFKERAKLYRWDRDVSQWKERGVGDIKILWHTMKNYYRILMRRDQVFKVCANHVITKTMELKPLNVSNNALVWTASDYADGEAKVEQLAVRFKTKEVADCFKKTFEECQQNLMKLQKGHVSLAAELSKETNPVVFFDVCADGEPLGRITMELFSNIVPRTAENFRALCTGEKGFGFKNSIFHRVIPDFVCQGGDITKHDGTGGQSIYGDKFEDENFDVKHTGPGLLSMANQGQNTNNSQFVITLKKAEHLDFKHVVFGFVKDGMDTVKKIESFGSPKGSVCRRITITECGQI
UniProt Q9C035: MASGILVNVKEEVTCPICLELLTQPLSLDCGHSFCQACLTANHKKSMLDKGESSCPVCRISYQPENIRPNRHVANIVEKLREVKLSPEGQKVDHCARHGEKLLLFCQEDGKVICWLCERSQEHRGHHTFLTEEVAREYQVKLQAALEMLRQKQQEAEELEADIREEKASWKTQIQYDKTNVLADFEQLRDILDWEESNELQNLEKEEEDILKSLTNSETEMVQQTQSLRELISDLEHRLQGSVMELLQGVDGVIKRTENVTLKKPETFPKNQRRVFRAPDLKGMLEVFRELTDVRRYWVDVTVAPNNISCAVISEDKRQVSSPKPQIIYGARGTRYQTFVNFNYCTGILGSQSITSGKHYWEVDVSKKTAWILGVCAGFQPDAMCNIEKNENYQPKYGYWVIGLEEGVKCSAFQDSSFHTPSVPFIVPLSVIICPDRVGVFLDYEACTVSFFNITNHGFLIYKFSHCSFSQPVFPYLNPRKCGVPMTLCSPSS

B1: TRIM34 (protein, UniProt Q9BYJ4 1-488)
chain: MASKILLNVQEEVTCPICLELLTEPLSLDCGHSLCRACITVSNKEAVTSMGGKSSCPVCGISYSFEHLQANQHLANIVERLKEVKLSPDNGKKRDLCDHHGEKLLLFCKEDRKVICWLCERSQEHRGHHTVLTEEVFKECQEKLQAVLKRLKKEEEEAEKLEADIREEKTSWKYQVQTERQRIQTEFDQLRSILNNEEQRELQRLEEEEKKTLDKFAEAEDELVQQKQLVRELISDVECRSQWSTMELLQDMSGIMKWSEIWRLKKPKMVSKKLKTVFHAPDLSRMLQMFRELTAVRCYWVDVTLNSVNLNLNLVLSEDQRQVISVPIWPFQCYNYGVLGSQYFSSGKHYWEVDVSKKTAWILGVYCRTYSRHMKYVVRRCANRQNLYTKYRPLFGYWVIGLQNKCKYGVFEESLSSDPEVLTLSMAVPPCRVGVFLDYEAGIVSFFNVTSHGSLIYKFSKCCFSQPVYPYFNPWNCPAPMTLCPPSS
B2: Transportin-3 (protein, UniProt Q9Y5L0 1-923)
chain: MEGAKPTLQLVYQAVQALYHDPDPSGKERASFWLGELQRSVHAWEISDQLLQIRQDVESCYFAAQTMKMKIQTSFYELPTDSHASLRDSLLTHIQNLKDLSPVIVTQLALAIADLALQMPSWKGCVQTLVEKYSNDVTSLPFLLEILTVLPEEVHSRSLRIGANRRTEIIEDLAFYSSTVVSLLMTCVEKAGTDEKMLMKVFRCLGSWFNLGVLDSNFMANNKLLALLFEVLQQDKTSSNLHEAASDCVCSALYAIENVETNLPLAMQLFQGVLTLETAYHMAVAREDLDKVLNYCRIFTELCETFLEKIVCTPGQGLGDLRTLELLLICAGHPQYEVVEISFNFWYRLGEHLYKTNDEVIHGIFKAYIQRLLHALARHCQLEPDHEGVPEETDDFGEFRMRVSDLVKDLIFLIGSMECFAQLYSTLKEGNPPWEVTEAVLFIMAAIAKSVDPENNPTLVEVLEGVVRLPETVHTAVRYTSIELVGEMSEVVDRNPQFLDPVLGYLMKGLCEKPLASAAAKAIHNICSVCRDHMAQHFNGLLEIARSLDSFLLSPEAAVGLLKGTALVLARLPLDKITECLSELCSVQVMALKKLLSQEPSNGISSDPTVFLDRLAVIFRHTNPIVENGQTHPCQKVIQEIWPVLSETLNKHRADNRIVERCCRCLRFAVRCVGKGSAALLQPLVTQMVNVYHVHQHSCFLYLGSILVDEYGMEEGCRQGLLDMLQALCIPTFQLLEQQNGLQNHPDTVDDLFRLATRFIQRSPVTLLRSQVVIPILQWAIASTTLDHRDANCSVMRFLRDLIHTGVANDHEEDFELRKELIGQVMNQLGQQLVSQLLHTCCFCLPPYTLPDVAEVLWEIMQVDRPTFCRWLENSLKGLPKETTVGAVTVTHKQLTDFHKQVTSAEECKQVCWALRDFTRLFR

Tests used:
Test in all cases: co-IP
[1] = target: HA-tagged Daxx 1-732 (ΔSIM mutant) (human) (UniProt Q9UER7)
[2] = target: HA-tagged Daxx wild-type (death domain-associated protein 6) (human) (UniProt Q9UER7)
[3] = target: Daxx (endogenous) (human (endogenous in HEK293T)) (UniProt Q9UER7)
[4] = target: HA-tagged Daxx 1-732 (ΔSIM mutant) (human) (UniProt Q9UER7); remark: listed apart in the source
[5] = target: HA-tagged Daxx wild-type (death domain-associated protein 6) (human) (UniProt Q9UER7); remark: listed apart in the source

| Molecule | binding [1] | binding [2] | binding [3] | binding [4] | binding [5] |
| --- | --- | --- | --- | --- | --- |
| E3 SUMO-protein ligase RanBP2 (from UniProt P49792 1-3224) | binds | binds |  |  |  |
| Flag-tagged human TRIM5α (from UniProt Q9C035 1-493) |  |  | binds |  |  |
| TRIM5α (endogenous) (from UniProt Q9C035 1-493) | binds | binds |  |  |  |
| B1 |  |  |  | binds | binds |
| B2 |  |  |  | binds | binds |
